Taken from: PubChem BioAssay AID1259425 (University of Nebraska Medical Center, 2018)

Assay: 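Compare each knockdown with KSR1 silencing using changes in marker transcripts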 (primary screen)
System: HCT116 human colon cancer cells
Reagents: siRNA pool against human genes, 50 nM siRNA
Detection: 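After 50 nM siRNA pool, branched-DNA assay measures six marker transcripts per well, minus blank, normalised to the geometric mean of two housekeeping transcripts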
Reading the numbers: BNIP3L mRNA: higher = more BNIP3L transcript after knockdown; NDRG1 mRNA: higher = more NDRG1 transcript after knockdown; BNIP3 mRNA: higher = more BNIP3 transcript after knockdown; ALDOC mRNA: higher = more ALDOC transcript after knockdown; ACSL5 mRNA: higher = more ACSL5 transcript after knockdown
The deposit covers about 14,000 reagents; shown is an unselected part. The record does not give: the time to read-out.

gene symbol	PubChem SID	BNIP3L mRNA, set 1	NDRG1 mRNA, set 1	BNIP3 mRNA, set 1	ALDOC mRNA, set 1	ACSL5 mRNA, set 1
GPR35 (GeneID 2859)	SID363996218	0.17	0.638	0.472	0.092	0.184
SNX13 (GeneID 23161)	SID363999319	0.109	0.25	0.346	0.0452	0.151
TSLIG3A (GeneID 25940)	SID363999521	0.234	0.384	0.774	0.0605	0.204
LPAL2 (GeneID 80350)	SID364002822	0.0898	0.24	0.415	0.0279	0.181
FAM156A (GeneID 29057)	SID363998603	0.0776	0.134	0.435	0.0295	0.169
MFAP5 (GeneID 8076)	SID363994579	0.0727	0.273	0.292	0.0645	0.085
CTBP2 (GeneID 1488)	SID363992609	0.0918	0.122	0.402	0.0303	0.25
ENTPD3 (GeneID 956)	SID363992533	0.0821	0.121	0.234	0.0333	0.137
LPAR6 (GeneID 10161)	SID363996648	0.266	0.56	0.772	0.0904	0.322
HPSE2 (GeneID 60495)	SID364002208	0.0839	0.0569	0.237	0.0223	0.167
SLC25A22 (GeneID 79751)	SID364002985	0.4	0.635	0.188	0.186	0.333
CSNK1E (GeneID 1454)	SID363993107	0.0582	0.58	0.352	0.00722	0.475
KIR3DL2 (GeneID 3812)	SID363997509	0.0787	0.0908	0.32	0.0168	0.113
TRIM25 (GeneID 7706)	SID363996018	0.118	0.142	0.224	0.0383	0.0838
BAHD1 (GeneID 22893)	SID363999220	0.197	0.111	0.278	0.0164	0.0808
DNAJC1 (GeneID 64215)	SID364002419	0.0812	0.261	0.347	0.0124	0.342
IKBKG (GeneID 8517)	SID363994714	0.136	0.27	0.234	0.0761	0.162

Only “ALDOC mRNA, set 1” (4 entries from above):
GPR35 (GeneID 2859) [SID363996218]	0.092
SNX13 (GeneID 23161) [SID363999319]	0.0452
TSLIG3A (GeneID 25940) [SID363999521]	0.0605
LPAL2 (GeneID 80350) [SID364002822]	0.0279

The listing continues.
gene symbol	PubChem SID	BNIP3L mRNA, set 1	NDRG1 mRNA, set 1	BNIP3 mRNA, set 1	ALDOC mRNA, set 1	ACSL5 mRNA, set 1
ACOX1 (GeneID 51)	SID363995045	0.0854	0.185	0.247	0.0117	0.117
MYH15 (GeneID 22989)	SID364005097	0.192	0.136	0.445	0.00977	0.162
GJA9 (GeneID 81025)	SID364003425	0.177	0.247	0.372	0.0406	0.248
TRRAP (GeneID 8295)	SID363994594	0.16	0.146	0.36	0.0316	0.296
HSD17B1 (GeneID 3292)	SID363991744	0.0832	0.171	0.244	0.0194	0.163
CLEC3B (GeneID 7123)	SID363994397	0.1	-0.00245	0.33	0.0101	0.261
ATRX (GeneID 546)	SID363991812	0.136	0.162	0.309	0.021	0.227
USP2 (GeneID 9099)	SID363995205	0.113	0.227	0.337	0.0224	0.171
RPS2 (GeneID 6187)	SID363994103	0.106	0.272	0.38	0.00696	0.11
TRIM44 (GeneID 54765)	SID364000377	0.123	0.393	0.286	0.0151	0.186
LGALS4 (GeneID 3960)	SID363996979	0.173	0.0837	0.279	0.0211	0.137
OPA1 (GeneID 4976)	SID363999574	0.0535	0.0809	0.194	0.0278	0.165
ADAM10 (GeneID 102)	SID363992405	0.105	0.15	0.503	0.0795	0.186
LHX3 (GeneID 8022)	SID363998936	0.101	0.0703	0.328	0.0128	0.117
SLURP1 (GeneID 57152)	SID364001689	0.0751	0.341	0.215	0.0378	0.312
CARD14 (GeneID 79092)	SID364002758	0.0775	0.534	0.351	0.00688	0.327
LTA (GeneID 4049)	SID363991913	0.236	0.312	0.662	0.0231	0.261
